# Test results: publication PMC9899610 (Cancer Science, 2022)
# Key:
# [1] = system: serum Pi; assay: Post hoc hyperphosphatemia assessment with phosphate-binding therapy; format: in vivo, human; conditions: futibatinib QD and phosphate-binding therapy for a minimum of two cycles; 95% CI, 47.8–80.9
# [2] = clinical; conditions: human, plasma, oral, 20 mg, Week 3 (day 21), QD 20 mg, n = 2, median (minimum, maximum)
# [3] = system: animal models of tumors with various FGFR gene abnormalities; conditions: FGFR1 or FGFR2 amplification and FGFR3 translocation; cited from earlier work
smiles,measurement,setting,value
C=CC(=O)N1CC[C@H](n2nc(C#Cc3cc(OC)cc(OC)c3)c3c(N)ncnc32)C1 [futibatinib],Patients achieving serum Pi level <5.5 mg/dl at the last futibatinib administration,[1],65.7%
same,Accumulation following repeated administration,"TIW regimen, 36–160 mg",no obvious futibatinib accumulation
same,Mean accumulation ratio of AUC0–last,"after multiple doses of 160 mg TIW, 90% CI, 0.91–2.30",1.44
same,Tmax,[2],1.44 h
same,Antitumor activity in animal models,[3],strong antitumor activity
